From patent US20170071840A1, “POLYPHENOL/FLAVONOID COMPOSITIONS AND METHODS OF FORMULATING ORAL HYGIENIC PRODUCTS” (VIZURI HEALTH SCIENCES LLC, priority 2015, published 2017) come the findings set out here.

The data set can be described thus: Penetration of apigenin, ibuprofen and thymol into extracted teeth (Example 31). The note with it: teeth soaked 24 hours.

For the molecule `Cc1ccc(C(C)C)c(O)c1` [THY, thymol], the “THY Final amount” value turned out to be 2252.5 µg. Also, under “25 mL methanol extract”, the “THY HPLC Results” value worked out at 90.1 µg/mL.

Consider `O=c1cc(-c2ccc(O)cc2)oc2cc(O)cc(O)c12` [APIG, apigenin], for which the “APIG Final amount” value is 750 µg. The “APIG HPLC Results” value (25 mL methanol extract) was 30.0 µg/mL.

Turning to `CC(C)Cc1ccc(C(C)C(=O)O)cc1` (stereo not drawn) [IBP, ibuprofen, reference compound], the “IBP Final amount” value is 5100 µg. The “IBP HPLC Results” value (25 mL methanol extract) came out at 204.0 µg/mL.
